Data on 26 compounds can be found in the supplement of paper PMC4635364.

Counter-ions that a name gives are not always drawn. Some of the results follow. Repeats in this data set agree poorly, so a single value says little.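 ReNCell VM, a human fetal ventral-midbrain neural progenitor line, was differentiated without mitogens. Blinded raters scored images stained for doublecortin (early neurons) or tyrosine hydroxylase (dopaminergic neurons) against untreated wells (0 = no change). Scores were averaged across repeats and both raters, and compounds averaging 2 or more were selected as hits for retesting.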

Experiment [1] concerns ReNCell VM. Description: neuronal differentiation score (DCX+ cell fraction vs untreated, manual image score) (score (-3 to 3)); higher = more neuronal differentiation. Conditions: 2 uM, 2 weeks.
In experiment [2] the test system is ReNCell VM. As to the kind of experiment: dopaminergic neuron differentiation score (TH+ cell fraction vs untreated, manual image score) (score (0 to 3)); higher = more TH+ dopaminergic neuron differentiation. Conditions: 2 uM, 4 weeks, BDNF 10 ng/ml + GDNF 10 ng/ml.

For the compound `c1ccc2c3c([nH]c2c1)C1C2CCC(C4CCCNC42)N1CC3` (configuration not stated) [Nitrarine dihydrochloride], the neuronal differentiation score with ReNCell VM [1] (library: Phytochemical) was inactive: 0. Besides, the “dopaminergic neuron differentiation score” value in the experiment with ReNCell VM [2] (library: Phytochemical) was inactive: 0.

Take `CS(=O)(=O)c1ccc(C2=C(c3ccccc3)C(=O)OC2)cc1` [Rofecoxib]: in the experiment on ReNCell VM [1] (library: Prestwick), the neuronal differentiation score is inactive: 0. The “dopaminergic neuron differentiation score” value in the experiment on ReNCell VM [2] (library: Prestwick) was inactive: 0.

In the case of `C#C[C@]1(OC(C)=O)CC[C@H]2[C@@H]3CCC4=C[C@@H](OC(C)=O)CC[C@@H]4[C@H]3CC[C@@]21C` [Ethynodiol diacetate], the neuronal differentiation score in the experiment with ReNCell VM [1] (library: Prestwick) was inactive: 0. The “dopaminergic neuron differentiation score” value in the experiment with ReNCell VM [2] (library: Prestwick) was inactive: 0.

Regarding `Nc1ncn(C2OC(CO)C(O)C2O)c(=O)n1` (configuration not stated) [Azacytidine-5], the neuronal differentiation score with ReNCell VM [1] (library: Prestwick) is inactive: 0. For the same compound, the “dopaminergic neuron differentiation score” value in the experiment with ReNCell VM [2] (library: Prestwick) is inactive: 0.

Take `C[n+]1cc2c3c(ccc2c2ccc4cc5c(cc4c21)OCO5)OCO3` [Sanguinarine chloride]: the neuronal differentiation score in the experiment with ReNCell VM [1] (library: LOPAC) is inactive: 0. In the experiment with ReNCell VM [2] (library: LOPAC), the “dopaminergic neuron differentiation score” value is inactive: 0.

Turning to `C=C(C)[C@@H]1CC[C@]2(C(=O)O)CC[C@]3(C)[C@H](CC[C@@H]4[C@@]5(C)CC[C@H](O)C(C)(C)[C@@H]5CC[C@]43C)[C@@H]12` [Betulinic acid], the neuronal differentiation score in the experiment on ReNCell VM [1] (library: Phytochemical) is inactive: 0. For the same compound, the “dopaminergic neuron differentiation score” value in the experiment on ReNCell VM [2] (library: Phytochemical) was inactive: 1.

Consider `C[C@H](NC[C@H](O)CP(=O)(O)CC1CCCCC1)c1ccc(Cl)c(Cl)c1`, for which the neuronal differentiation score in the experiment on ReNCell VM [1] (library: Tocriscreen) is inactive: 0. Further, the “dopaminergic neuron differentiation score” value in the experiment on ReNCell VM [2] (library: Tocriscreen) is inactive: 0.

Take `O=C(O)CCC/C=C\C[C@@H]1CO[C@H](C(F)(F)F)O[C@@H]1c1ccccc1O`: the neuronal differentiation score with ReNCell VM [1] (library: Tocriscreen) is inactive: 0. For the same compound, the “dopaminergic neuron differentiation score” value in the experiment with ReNCell VM [2] (library: Tocriscreen) was active: 2.

On to `COc1ccc(CCN(C)CCCN2CCc3cc(OC)c(OC)cc3CC2=O)cc1OC` [Zatebradine hydrochloride], for which, in the experiment on ReNCell VM [1] (library: Tocriscreen), the neuronal differentiation score was inactive: 0. Moreover, the “dopaminergic neuron differentiation score” value in the experiment with ReNCell VM [2] (library: Tocriscreen) was inactive: 0.

In the case of `CCN(Cc1ccncc1)C(=O)C(CO)c1ccccc1` (configuration not stated), the neuronal differentiation score in the experiment on ReNCell VM [1] (library: Spectrum) was inactive: 0. In addition, the “dopaminergic neuron differentiation score” value in the experiment with ReNCell VM [2] (library: Spectrum) is inactive: 0.

Take `Cc1[nH]c(/C=C2\C(=O)Nc3ccccc32)c(C)c1CCC(=O)O`: in the experiment on ReNCell VM [1] (library: Tocriscreen), the neuronal differentiation score was inactive: 0. Besides, the “dopaminergic neuron differentiation score” value in the experiment on ReNCell VM [2] (library: Tocriscreen) was inactive: 0.

As to `CSCC[C@H](N)C(=O)O` [L-Methionine], in the experiment with ReNCell VM [1] (library: Phytochemical), the neuronal differentiation score is inactive: 0. In addition, the “dopaminergic neuron differentiation score” value with ReNCell VM [2] (library: Phytochemical) was inactive: 0.

In the case of `CCCCCCCC/C=C\CCCCCCCC(=O)O.NCCO`, the neuronal differentiation score with ReNCell VM [1] (library: Spectrum) is inactive: 0. For the same compound, the “dopaminergic neuron differentiation score” value in the experiment on ReNCell VM [2] (library: Spectrum) was inactive: 0.

Take `COc1ccc2c(c1)OC[C@H]1c3cc4c(cc3O[C@@H]21)OCO4` [pterocarpin methylether]: the neuronal differentiation score in the experiment on ReNCell VM [1] (library: Natural) is inactive: 0. In the experiment on ReNCell VM [2] (library: Natural), the “dopaminergic neuron differentiation score” value is inactive: 0.

As to `Nc1nccc(-c2ccc3noc(-c4ccc(Cl)cc4)c3c2)n1` [PIM 1 Inhibitor 2], the neuronal differentiation score with ReNCell VM [1] (library: Tocriscreen) was inactive: -1. Further, in the experiment on ReNCell VM [2] (library: Tocriscreen), the “dopaminergic neuron differentiation score” value is inactive: 0.

With `CC(=O)Oc1cc(C(C)C)c(OCCN(C)C)cc1C` [Moxisylyte hydrochoride], the neuronal differentiation score in the experiment on ReNCell VM [1] (library: Prestwick) is inactive: 0. The “dopaminergic neuron differentiation score” value with ReNCell VM [2] (library: Prestwick) was inactive: 0.

As to `O=c1cccc2ccc(O)c(O)c2c1O`, the neuronal differentiation score in the experiment on ReNCell VM [1] (library: Spectrum) was inactive: 0. The “dopaminergic neuron differentiation score” value with ReNCell VM [2] (library: Spectrum) was inactive: 0.

Regarding `CN(C)CCC(c1ccc(Br)cc1)c1ccccn1` (configuration not stated), the neuronal differentiation score in the experiment with ReNCell VM [1] (library: Spectrum) was inactive: 0. Also, the “dopaminergic neuron differentiation score” value in the experiment with ReNCell VM [2] (library: Spectrum) is inactive: 0.

As to `CN(C)CCN(Cc1ccccc1)c1ccccn1`, the neuronal differentiation score in the experiment with ReNCell VM [1] (library: Spectrum) was inactive: 0. Besides, the “dopaminergic neuron differentiation score” value with ReNCell VM [2] (library: Spectrum) was inactive: 0.

On to `Cn1ccnc1S` [Methimazole], for which the neuronal differentiation score with ReNCell VM [1] (library: Prestwick) is inactive: 0. In addition, the “dopaminergic neuron differentiation score” value in the experiment on ReNCell VM [2] (library: Prestwick) is inactive: 0.

As for `CC1(C)CCC(C)(C)c2cc(C3(c4ccc(C(=O)O)cc4)OCCO3)ccc21`, the neuronal differentiation score with ReNCell VM [1] (library: Tocriscreen) was inactive: 0. The “dopaminergic neuron differentiation score” value with ReNCell VM [2] (library: Tocriscreen) is inactive: 0.

On to `CC1(C)CC2C1CC[C@]1(CBr)CCC3C(CC(=O)O)C(=O)O[C@@]32C1` (some centres not stated) [BROMO-3-HYDROXY-4-(SUCCIN-2-YL)-CARYOLANE gamma-LACTONE], for which the neuronal differentiation score with ReNCell VM [1] (library: Spectrum) is inactive: 0. Further, the “dopaminergic neuron differentiation score” value in the experiment on ReNCell VM [2] (library: Spectrum) is inactive: 0.

On to `O=C(O)c1cc(O)c2c(c1)[C@@H]([C@H]1c3cc(C(=O)O)cc(O)c3C(=O)c3c(O[C@@H]4O[C@H](CO)[C@@H](O)[C@H](O)[C@H]4O)cccc31)c1cccc(O[C@@H]3O[C@H](CO)[C@@H](O)[C@H](O)[C@H]3O)c1C2=O`, for which the neuronal differentiation score in the experiment with ReNCell VM [1] (library: Spectrum) is inactive: 0. In the experiment on ReNCell VM [2] (library: Spectrum), the “dopaminergic neuron differentiation score” value is inactive: 0.

`N[C@H](C(=O)O)c1cc(O)cc(O)c1` [(S)-3,5-Dihydroxyphenylglycine]: the neuronal differentiation score with ReNCell VM [1] (library: LOPAC) is inactive: 0. Further, the “dopaminergic neuron differentiation score” value in the experiment with ReNCell VM [2] (library: LOPAC) is inactive: 0.

On to `CCS(=O)(=O)CCn1c([N+](=O)[O-])cnc1C` [Tinidazole], for which the neuronal differentiation score in the experiment with ReNCell VM [1] (library: Prestwick) is inactive: 0. The “dopaminergic neuron differentiation score” value in the experiment with ReNCell VM [2] (library: Prestwick) was inactive: 0.

`O=C(CNC(=O)c1ccc(Cl)cc1)NO`: the neuronal differentiation score in the experiment on ReNCell VM [1] (library: Spectrum) was inactive: 0. Also, the “dopaminergic neuron differentiation score” value with ReNCell VM [2] (library: Spectrum) is inactive: 0.
